Test results reported in patent US8114862B2, “TGR5 modulators and methods of use thereof” (Intercept Pharmaceuticals, Inc., priority 2008, dated 2012).
Where two headings read alike, the source gives them in different places.

Assays:
HepG2 cells [1] = experiment: cells; details: Homo sapiens, HepG2, 4 h, read-out: APOPTOSIS Caspase-3 activation EC50
HepG2 cells [2] = experiment: cells; details: Homo sapiens, HepG2, 4 h, read-out: NECROSIS LDH release EC50

Q: Which EC50 (HepG2 cells [1]) does the source give for `CC/C(=C(\c1ccccc1)c1ccc(OCCN(C)C)cc1)c1ccccc1` [Tamoxifen] here?
A: The EC50 was 4 µM.

Q: What about the EC50 (HepG2 cells [2]) of the same compound?
A: The EC50 was 35 µM.
